Test results as given in patent US20160201132A1, “GENE EXPRESSION BIOMARKERS OF LAQUINIMOD RESPONSIVENESS” (Teva Pharmaceutical Industries Ltd., priority 2013, published 2016).
This continues a long series; more values of the same kind are listed elsewhere.

Tested on: PBMC of RRMS patients
Assay: Gene expression microarray analysis (HG-U133A-2) of PBMC from RRMS patients treated with LAQ, ancillary study to ALLEGRO
Type: in vivo, human
Conditions: for Fold-Change (4.0 vs. 0.0): after six months of treatment; for Fold-Change (1.0 vs. 0.0): one month of treatment
Text: The goal of this ancillary study was to characterize gene expression changes and corresponding biological mechanisms induced in PBMC of RRMS patients by LAQ treatment. According to ALLEGRO clinical trial inclusion criteria, 25 patients were randomly assigned to receive LAQ (n=13, age 38.8±2.3 years, female/male ratio: 8/5) or placebo (n=12, age 37.2±3.4 years, female/male ratio: 8/4).
Peripheral blood samples were obtained from RRMS patients at baseline before start of LAQ treatment or placebo, after 0, 1, 6 and 24 month of treatment (visit 0, 1, 6 and 7 according to ALLEGRO clinical trial protocol correspondently) for gene microarray analysis.
Briefly, 1) Peripheral blood mononuclear cells (PBMC) were obtained from RRMS patients that participated in ALLEGRO and were treated daily with 0.6 mg LAQ or placebo. PBMC were subjected for gene expression analysis (HU-133A-2-Affymatrix arrays) at baseline and at 1 and 6 months of LAQ treatment; 2) Data was analyzed by Partek Genomics Solution software. Most informative genes (MIGs) were defined as those that differentiated between groups with p<0.01. Gene functional annotation, enrichment and pathway analysis were performed by Ingenuity software. For each time point, genes that changed in placebo group were excluded from further analysis; and 3) Verification of LAQ related mechanism was performed by Western blot.
PBMC were extracted from 15 ml peripheral blood, separated by Ficoll-Hypaque gradient. Total RNA was extracted using both Trizol (Invitrogen, USA) and Phase-Lock-Gel columns (Eppendorf, Germany) including a DNase digestion step. RNA integrity was assessed by RNA Experion automated electrophoresis system (Bio-Rad Laboratories, Hercules, Calif.).
Probe synthesis using 3 μg total RNA, hybridization, detection, and scanning was performed according to the standard Affymetrix, Inc. USA protocols; cDNA was synthesized using the Two-Cycle cDNA Synthesis Kit (Affymetrix, Inc., USA), and in-vitro transcription performed with the GeneChip IVT Labeling Kit (Affymetrix, Inc., USA). The biotin-labeled IVT-RNA was hybridized to HG-U133A-2 arrays containing 18,400 gene transcripts, each corresponding to 14,500 well-annotated human genes, washed in a GeneChip Fluidics Station 450 (Hewlett Packard, USA, GeneArray-™ scanner G2500A) and scanned according to the manufacturer's protocol (Affymetrix, Inc., USA).
Data analysis was performed on Partek Genomics Solution software (www.partek.com; Partek Incorporated, St. Louis, Mo.). Expression values were computed from raw CEL files by applying the Robust Multi-Chip Average (RMA) background correction algorithm. RMA correction included: 1) values background correction; 2) quintile normalization; 3) log 2 transformation; and 4) median polish summarization. The ANOVA, Repeated Measures and correlation analysis implicated in Partek software ware applied to evaluate LAQ effects. Most informative genes MIGs were defined as those that differentiated between experimental groups with p<0.01. All p-values were calculated for False Discovery Rate (FDR) multiple test correction at p=0.05.
Additionally, significance of individual genes was tested by parametric T-test and non parametric Mann-Whitney test using Bootstrapping approach based on repeated permutations of the data with 5% FDR for multiple testing.
Gene functional annotation, enrichment, and pathway analyses to identify the leading biological pathways that operated under LAQ treatment were performed by Ingenuity Pathways Analysis software (www.ingenuity.com).
ANOVA analysis was used to compare PBMC gene expression after 1, 6 or 24 month of LAQ treatment with baseline gene expression.
For each time point inventors performed analysis source of variation in dataset. (FIG. 1). Age, gender and batch effects were considered as confounders regarding LAQ or Placebo related changes. For each time point genes associated with Placebo effect were evaluated and excluded from further analysis. […]

SMILES: CCN(C(=O)c1c(O)c2c(Cl)cccc2n(C)c1=O)c1ccccc1 [LAQ, 5-chloro-N-ethyl-4-hydroxy-1-methyl-2-oxo-N-phenyl-1,2-dihydroquinoline-3-carboxamide]
- Fold-Change (4.0 vs. 0.0) (CYP3A4 expression): −1.205
- Fold-Change (4.0 vs. 0.0) (CYP4F8 expression): −1.221
- Fold-Change (1.0 vs. 0.0) (CYP4F11 206153_at): −1.095
- Fold-Change (4.0 vs. 0.0) (DNMBP expression): −1.219
- Fold-Change (4.0 vs. 0.0) (DNMT3L expression): −1.22
- Fold-Change (4.0 vs. 0.0) (DRD3 expression): −1.215
- Fold-Change (4.0 vs. 0.0) (DUS4L expression): −1.207
- Fold-Change (4.0 vs. 0.0) (DUSP13 expression): −1.222
- Fold-Change (1.0 vs. 0.0) (EGF 206254_at): −1.734
- Fold-Change (4.0 vs. 0.0) (EGFR expression): −1.198
- Fold-Change (4.0 vs. 0.0) (EGR4 expression): −1.21
- Fold-Change (4.0 vs. 0.0) (ELL expression): −1.207
- Fold-Change (1.0 vs. 0.0) (ENDOD1 212573_at): −1.293
- Fold-Change (4.0 vs. 0.0) (EPS8L3 expression): −1.214
- Fold-Change (1.0 vs. 0.0) (EPS15L2 207750_at): −1.1441
- Fold-Change (4.0 vs. 0.0) (ERBB3 expression): −1.216
- Fold-Change (4.0 vs. 0.0) (ERCC4 expression): −1.198
- Fold-Change (4.0 vs. 0.0) (ESRRG expression): −1.21
- Fold-Change (4.0 vs. 0.0) (EYA3 expression): −1.196
- Fold-Change (4.0 vs. 0.0) (FBXL18 expression): −1.1956
- Fold-Change (4.0 vs. 0.0) (FGF13 expression): −1.202
- Fold-Change (4.0 vs. 0.0) (FLJ14100 expression): −1.22
- Fold-Change (1.0 vs. 0.0) (FLNA 200859_x_at): −1.155
- Fold-Change (1.0 vs. 0.0) (FLNA 214752_x_at): −1.14
- Fold-Change (1.0 vs. 0.0) (FOLR1 204437_s_at): −1.22
- Fold-Change (4.0 vs. 0.0) (FOXA2 expression): −1.2197
- Fold-Change (1.0 vs. 0.0) (FUT9 214046_at): −1.127
- Fold-Change (1.0 vs. 0.0) (GFI1B 208501_at): −1.558
- Fold-Change (4.0 vs. 0.0) (GFRA3 expression): −1.2047
- Fold-Change (4.0 vs. 0.0) (GHRHR expression): −1.204
- Fold-Change (4.0 vs. 0.0) (GJC1 expression): −1.197
- Fold-Change (1.0 vs. 0.0) (GLRA3 210661_at): −1.156
- Fold-Change (4.0 vs. 0.0) (GLT8D2 expression): −1.216
- Fold-Change (1.0 vs. 0.0) (GNG11 204115_at): −1.679
- Fold-Change (4.0 vs. 0.0) (GPD1 expression): −1.213
- Fold-Change (4.0 vs. 0.0) (GPLD1 expression): −1.208
- Fold-Change (4.0 vs. 0.0) (GPR144 expression): −1.199
- Fold-Change (4.0 vs. 0.0) (GPR153 expression): −1.202
- Fold-Change (4.0 vs. 0.0) (GPRC5A expression): −1.196
- Fold-Change (1.0 vs. 0.0) (GREM1 218468_s_at): −1.116
- Fold-Change (1.0 vs. 0.0) (GRHL2 219388_at): −1.131
- Fold-Change (1.0 vs. 0.0) (GRIK2 215655_at): −1.122
- Fold-Change (4.0 vs. 0.0) (GRIK2 expression): −1.2
- Fold-Change (4.0 vs. 0.0) (GRIN2B expression): −1.206
- Fold-Change (1.0 vs. 0.0) (GUCY1B3 211555_s_at): −1.618
- Fold-Change (4.0 vs. 0.0) (HAB1 expression): −1.207
- Fold-Change (4.0 vs. 0.0) (HDAC6 expression): −1.2058
- Fold-Change (4.0 vs. 0.0) (HECW1 expression): −1.2103
- Fold-Change (4.0 vs. 0.0) (HIP1 expression): −1.2
- Fold-Change (1.0 vs. 0.0) (HIST1H2AI 214542_x_at): −1.2842
- Fold-Change (1.0 vs. 0.0) (HLA-C 214459_x_at): −1.063
- Fold-Change (4.0 vs. 0.0) (HLA-DRB6 expression): −1.2
- Fold-Change (1.0 vs. 0.0) (HLA-E 200904_at): −1.126
- Fold-Change (4.0 vs. 0.0) (HNF1B expression): −1.208
- Fold-Change (4.0 vs. 0.0) (HOXB1 expression): −1.218
- Fold-Change (4.0 vs. 0.0) (HOXB3 expression): −1.21
- Fold-Change (4.0 vs. 0.0) (HOXD4 expression): −1.204
- Fold-Change (4.0 vs. 0.0) (HR expression): −1.215
- Fold-Change (4.0 vs. 0.0) (HSPG2 expression): −1.2
- Fold-Change (4.0 vs. 0.0) (IFT122 expression): −1.223
- Fold-Change (4.0 vs. 0.0) (IL1RAPL1 expression): −1.22
- Fold-Change (4.0 vs. 0.0) (INPP5A expression): −1.213
- Fold-Change (4.0 vs. 0.0) (IRF5 expression): −1.21
- Fold-Change (4.0 vs. 0.0) (ITGA8 expression): −1.206
- Fold-Change (4.0 vs. 0.0) (ITPR3 expression): −1.202
- Fold-Change (4.0 vs. 0.0) (KCNA1 expression): −1.221
- Fold-Change (4.0 vs. 0.0) (KCNJ13 expression): −1.206
- Fold-Change (4.0 vs. 0.0) (KCNMB3 expression): −1.213
- Fold-Change (1.0 vs. 0.0) (KIAA1199 212942_s_at): −1.121
- Fold-Change (1.0 vs. 0.0) (KIF2A 203086_at): −1.277
- Fold-Change (4.0 vs. 0.0) (KIR3DX1 expression): −1.1993
- Fold-Change (4.0 vs. 0.0) (KLK7 expression): −1.214
- Fold-Change (4.0 vs. 0.0) (KLK11 expression): −1.205
- Fold-Change (4.0 vs. 0.0) (KLK13 expression): −1.22
- Fold-Change (1.0 vs. 0.0) (KRT20 213953_at): −1.137
- Fold-Change (4.0 vs. 0.0) (KRT33A expression): −1.198
- Fold-Change (4.0 vs. 0.0) (LAMA2 expression): −1.205
- Fold-Change (4.0 vs. 0.0) (LARGE expression): −1.207
- Fold-Change (4.0 vs. 0.0) (LEFTY2 expression): −1.204
- Fold-Change (4.0 vs. 0.0) (LENEP expression): −1.208
- Fold-Change (1.0 vs. 0.0) (LEPROT 202378_s_at): −1.261
- Fold-Change (4.0 vs. 0.0) (LOC440895 expression): −1.216
